No constants are given. Whether binding was seen depends on the method and setting. Binding seen in cells or lysates may run through a third protein. Some entries that bind do so weakly or less than the wild type. Where a sequence is shown, tags or fusion partners need not be part of it.
Target: AdhE (Streptococcus pneumoniae), C-terminally FLAG-tagged, ectopic competence-inducible copy in strain SO007 (Streptococcus pneumoniae) (UniProt Q8DNA5)
Assay: co-IP + other: negative-stain electron microscopy

B1: AdhE (Streptococcus pneumoniae), C-terminally FLAG-tagged, ectopic competence-inducible copy in strain SO007 (enzyme, UniProt Q8DNA5 1-890)
chain: MKAMEENMADKKTVTPEEKKLVAEKHVDELVQKALVALEEMRKLNQEQVDYIVAKASVAALDAHGELALHAFEETGRGVFEDKATKNLFACEHVVNNMRHTKTVGVIEEDDVTGLTLIAEPVGVVCGITPTTNPTSTAIFKSLISLKTRNPIVFAFHPSAQESSAHAARIVRDAAIAAGAPENCVQWITQPSMEATSALMNHEGVATILATGGNAMVKAAYSCGKPALGVGAGNVPAYVEKSANIRQAAHDIVMSKSFDNGMVCASEQAVIIDKEIYDEFVAEFKSYHTYFVNKKEKALLEEFCFGVKANSKNCAGAKLNADIVGKPATWIAEQAGFTVPEGTNILAAECKEVGENEPLTREKLSPVIAVLKSESREDGITKARQMVEFNGLGHSAAIHTADEELTKEFGKAVKAIRVICNSPSTFGGIGDVYNAFLPSLTLGCGSYGRNSVGDNVSAINLLNIKKVGRRRNNMQWMKLPSKTYFERDSIQYLQKCRDVERVMIVTDHAMVELGFLDRIIEQLDLRRNKVVYQIFADVEPDPDITTVNRGTEIMRAFKPDTIIALGGGSPMDAAKVMWLFYEQPEVDFRDLVQKFMDIRKRAFKFPLLGKKTKFIAIPTTSGTGSEVTPFAVISDKANNRKYPIADYSLTPTVAIVDPALVLTVPGFVAADTGMDVLTHATEAYVSQMASDYTDGLALQAIKLVFENLESSVKNADFHSREKMHNASTIAGMAFANAFLGISHSMAHKIGAQFHTIHGRTNAILLPYVIRYNGTRPAKTATWPKYNYYRADEKYQDIARMLGLPASTPEEGVESYAKAVYELGERIGIQMNFRDQGIDEKEWKEHSRELAFLAYEDQCSPANPRLPMVDHMQEIIEDAYYGYKERPGRRK
binding: binds

Reference: article PMC4398557, “Conserved Streptococcus pneumoniae Spirosomes Suggest a Single Type of Transformation Pilus in Competence” (PLoS Pathogens, 2015)
